No constants are given. Whether binding was seen depends on the method and setting. For part of these data: Binding seen in cells or lysates may run through a third protein. Some entries that bind do so weakly or less than the wild type.
Columns and labels:
[1] = target: endogenous caveolin-1 (THP-1 cell lysate, monocyte lysate) (human) (UniProt Q03135); assay: co-immunoprecipitation in both directions from THP-1 cells cocultured with sCD26
[2] = target: endogenous caveolin-1 (THP-1 cell lysate, monocyte lysate) (human) (UniProt Q03135); assay: GST pull-down from THP-1 lysate, immunoblot with anti-caveolin-1
[3] = target: endogenous caveolin-1 (THP-1 cell lysate, monocyte lysate) (human) (UniProt Q03135); assay: affinity column of CD26 on ADA-Sepharose with THP-1 lysate, high-salt elution, silver stain, MALDI-TOF MS
[4] = target: CD26 in J.CD26 cell lysate (Jurkat T cells with stable expression of CD26) (UniProt P27487); assay: GST pull-down from J.CD26 lysate, immunoblot with anti-CD26

The chains behind the UniProt entries cited, without tags or fusion partners. Where a name states a change or a piece, a line headed by the entry shows the natural chain unless it says otherwise. Residues count along the entry.
UniProt Q03135: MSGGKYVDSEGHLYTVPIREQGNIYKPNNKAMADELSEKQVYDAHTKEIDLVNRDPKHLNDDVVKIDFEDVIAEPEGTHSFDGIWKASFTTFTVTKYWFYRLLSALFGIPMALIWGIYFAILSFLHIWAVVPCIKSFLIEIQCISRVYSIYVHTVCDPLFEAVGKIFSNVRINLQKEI
endogenous caveolin-1 (THP-1 cell lysate, monocyte lysate): residues 2-178 of Q03135
UniProt P27487: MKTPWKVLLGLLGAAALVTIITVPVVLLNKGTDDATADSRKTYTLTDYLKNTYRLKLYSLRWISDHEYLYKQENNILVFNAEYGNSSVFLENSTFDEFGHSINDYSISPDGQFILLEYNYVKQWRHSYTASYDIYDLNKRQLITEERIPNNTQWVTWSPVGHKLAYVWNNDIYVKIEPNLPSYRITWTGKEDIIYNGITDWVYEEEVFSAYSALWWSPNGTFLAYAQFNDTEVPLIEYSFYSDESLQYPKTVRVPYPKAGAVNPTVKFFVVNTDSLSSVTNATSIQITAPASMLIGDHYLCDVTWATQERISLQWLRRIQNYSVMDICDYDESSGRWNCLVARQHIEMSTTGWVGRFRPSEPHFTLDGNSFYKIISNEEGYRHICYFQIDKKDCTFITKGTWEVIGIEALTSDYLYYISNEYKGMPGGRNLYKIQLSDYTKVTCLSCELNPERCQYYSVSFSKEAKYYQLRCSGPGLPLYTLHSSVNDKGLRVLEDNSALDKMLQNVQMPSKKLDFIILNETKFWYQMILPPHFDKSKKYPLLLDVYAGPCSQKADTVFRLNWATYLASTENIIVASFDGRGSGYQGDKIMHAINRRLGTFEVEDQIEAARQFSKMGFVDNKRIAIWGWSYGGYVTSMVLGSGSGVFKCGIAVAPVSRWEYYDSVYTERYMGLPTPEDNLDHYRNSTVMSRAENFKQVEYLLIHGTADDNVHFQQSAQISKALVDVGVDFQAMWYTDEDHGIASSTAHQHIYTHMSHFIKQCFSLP

Substance	binding [4]	other results
recombinant soluble CD26 (rsCD26 wt) (from UniProt P27487 29-766) (enzyme)		binding [1]: binds
GST-CD26 D3 (residues 31-429) (from UniProt P27487 31-429)		binding [2]: binds
CD26 bound on adenosine deaminase-Sepharose beads (CD26-ADA beads) (from UniProt P27487 29-766) (enzyme)		binding [3]: binds
GST-Cav-1 wt (from UniProt Q03135 1-178)	binds	
GST-Cav-1 (1-101) (from UniProt Q03135 1-101)	binds	
GST-Cav-1 (82-178) (from UniProt Q03135 82-178)	binds	

Source: patent US20070259824A1
